Assay results published in the supplement of paper PMC12067093, “Discovery and optimisation of a covalent ligand for TRIM25 and its application to targeted protein ubiquitination” (Chemical Science, 2025).
The list shows a part of the results.

Compound: CC1Cc2ccccc2N1C(=O)C1CCCN(C1)C(=O)CCl (mixture of isomers) [TRIM25 ligand 11 (diastereomer mixture)]
Experiment: probe-labelled cysteine peptide fold change vs DMSO (competition) (log2 fold change); higher = less target engagement (more negative = stronger competition)
Conditions: THP-1, incubation time: 4 h
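Note: competitive chemoproteomic profiling in live THP-1 cells with an iodoacetamide desthiobiotin (IA-DTB) probe, comparing probe-labelled peptide intensities in compound-treated cells against DMSO-treated controls.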

Target | probe-labelled cysteine peptide fold change (10 µM) | probe-labelled cysteine peptide fold change (50 µM)
CYBB_P04839_369_IVGDWTEGLFNACGCDK (UniProt P04839) | 0.164 | 0.132
CTR9_Q6PD62_309_VQHLALHAFHNTEVEAMQAESCYQLAR (UniProt Q6PD62) | 0.335 | 0.0964
CWF19L1_Q69YN2_426_SHHLQLQVIPVPISCSTTDDIK (UniProt Q69YN2) | 0.261 | -0.35
CUL4A_Q13619_241_FLEETNCLYAAEGQR (UniProt Q13619) | 0.0925 | -0.059
DCAF11_Q8TEB1_288_EVLGGANDGCLYVFDR (UniProt Q8TEB1) | 0.147 | 0.201
DAB2IP_Q5VWQ8_487_IINSYCVFPR (UniProt Q5VWQ8) | 0.0544 | 0.0417
CTSC_P53634_136_NWACFTGK (UniProt P53634) | -0.0591 | -0.0137
CTU1_Q7Z7A3_144_SCCTFCGVLR (UniProt Q7Z7A3) | -0.0921 | -0.206
CTR9_Q6PD62_511_LYEAMCEFHEAEK (UniProt Q6PD62) | -6.99e-06 | 0.00546
CUL7_Q14999_952_CQQGGIDTR (UniProt Q14999) | -0.0323 | -0.0161
DAZAP1_Q96EP5_39_SYFSQYGEVVDCVIMK (UniProt Q96EP5) | 0.1 | 0.139
DALRD3_Q5D0E6_314_HLICGPVK (UniProt Q5D0E6) | -0.0996 | 0.467
DAZAP1_Q96EP5_124_IFVGGIPHNCGETELREYFK (UniProt Q96EP5) | -0.399 | -0.226
CUL1_Q13616_149_RECDEGR (UniProt Q13616) | -0.00634 | 0.0611
DBR1_Q9UK59_37_RGPGPVDLLLCCGDFQAVR (UniProt Q9UK59) | 0.1 | -0.0176
CTSO_P43234_204_AQNGLCHYFSGSHSGFSIK (UniProt P43234) | 0.363 | -0.212
CYFIP1_Q7L576_1088_LCCGLSMFEVILTR (UniProt Q7L576) | 0.0906 | 0.0519
DARS_P14868_203_LQSGICHLFR (UniProt P14868) | 0.11 | 0.0507
DCPS_Q96C86_307_AHLLAEVIENLECDPR (UniProt Q96C86) | 0.149 | -0.0437
CUL5_Q93034_265_RECNSVEALMECCVNALVTSFK (UniProt Q93034) | 0.105 | 0.221

Full records, quoted from the list. Order of values: probe-labelled cysteine peptide fold change (10 µM) | probe-labelled cysteine peptide fold change (50 µM)
CYFIP1_Q7L576_1088_LCCGLSMFEVILTR (UniProt Q7L576) in the list: 0.0906 | 0.0519
CTR9_Q6PD62_511_LYEAMCEFHEAEK (UniProt Q6PD62) in the list: -6.99e-06 | 0.00546

(next part)

Target | probe-labelled cysteine peptide fold change (10 µM) | probe-labelled cysteine peptide fold change (50 µM)
DCTN5_Q9BTE1_97_GVAFFPLHIGDHVFIEEDCVVNAAQIGSYVHVGK (UniProt Q9BTE1) | 0.123 | 0.136
DCAF13_Q9NV06_190_TNPICSMTWGFDSISSVK (UniProt Q9NV06) | 0.052 | -0.112
CUL4A_Q13619_289_LEEEGDRVITYLDHSTQKPLIACVEK (UniProt Q13619) | -0.292 | -0.273
CXorf38_Q8TB03_133+145_QGPEECDAVALLSLINSCDHFVVDRK (UniProt Q8TB03) | 0.127 | 0.294
CTSC_P53634_355_YYSSEYHYVGGFYGGCNEALMK (UniProt P53634) | 0.0557 | -0.136
CUL7_Q14999_1106_LTHLLVHVEPCEAPPPVVATPR (UniProt Q14999) | 0.0263 | 2.5e-05
DAZAP1_Q96EP5_63_DPNCVGTVLASR (UniProt Q96EP5) | 0.186 | 0.402
CXXC1_Q9P0U4_169+172+175_MCGECEACR (UniProt Q9P0U4) | -0.186 | -0.119
DBR1_Q9UK59_8+9_VAVAGCCHGELDK (UniProt Q9UK59) | -0.0439 | -0.172
CUL1_Q13616_137_VLNGICAYLNR (UniProt Q13616) | 0.0248 | 0.0123
DCAF4_Q8WV16_88_LLPGHNNCNPLTK (UniProt Q8WV16) | -0.0395 | 0.0033
DAZAP1_Q96EP5_63_DPNCVGTVLASRPHTLDGR (UniProt Q96EP5) | 0.0236 | 0.116
DAZAP1_Q96EP5_63_FKDPNCVGTVLASR (UniProt Q96EP5) | 0.11 | 0.17
DBR1_Q9UK59_339+347_VPCNFSVTAACYDPSKPQTQMQLIHR (UniProt Q9UK59) | -0.0581 | 0.0206
CXCR2_P25025_286_TQVIQETCER (UniProt P25025) | 0.104 | 0.088
CTSZ_Q9UBR2_164_DQECDK (UniProt Q9UBR2) | -0.0808 | -0.0718
CTSV_O60911_323_NNHCGIATAASYPNV (UniProt O60911) | 0.147 | -0.0722
CTSS_P25774_224_AATCSK (UniProt P25774) | -0.0306 | -0.288
DCAF1_Q9Y4B6_1297_TFHLLHTVPALDQCR (UniProt Q9Y4B6) | 0.35 | 0.409
DCAF12L1_Q5VU92_345_QDQQNIRPLCSR (UniProt Q5VU92) | 0.2 | 0.0874
